Data as given in PubChem BioAssay AID743454 (Peter MacCallum Cancer Centre, 2014).
Screen: 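Search for knock-downs that restore vorinostat killing in resistant colon cancer cells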 (primary screen). System: human HCT116-VR colon cancer cells, selected for vorinostat resistance. Knock-down reagent: siRNA pool against human genes, 40 nM siRNA pool. Duration: vorinostat for 24 h, read-out about 72 h after transfection. Conditions: vorinostat at 2.5 µM final. Measured: 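Two measures, CellTiter-Fluor viability and luminescent caspase 3/7 activity, each as fold change against same-plate mock wells, mean of duplicates, then screen-wide robust z-score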. Direction: viability robust z-score: higher = more viable cells than screen typical; caspase robust z-score: higher = more caspase 3/7 activity than screen typical. Active means: 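a knock-down is a hit when classed RV1 or RV2 for lowered viability, or CA1 or CA2 for caspase activation; those lethal without drug were dropped; hits were retested singly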.
Here is a random part of about 18,000 reagents tested. Over the whole deposit, 450 (2.5%) got an active call. 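Single biological run; no consistent viability z cut-off exists, so the class columns, not z-scores, define the calls.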

With knock-down of DNASE1L3 (deoxyribonuclease 1L3), the screen gave viability hit class no change; caspase hit class no change; viability robust z-score 0.02; caspase robust z-score 2.2; inactive. BFSP1 (beaded filament structural protein 1) scored viability hit class no change; caspase hit class no change; viability robust z-score 1.41; caspase robust z-score 0.1; inactive. Against RNF152 (ring finger protein 152) the deposit lists viability hit class no change; caspase hit class no change; viability robust z-score -1.12; caspase robust z-score 0.02; inactive. After knock-down of DOCK6 (dedicator of cytokinesis 6), the screen gave viability hit class no change; caspase hit class no change; viability robust z-score 0.2; caspase robust z-score 0.44; inactive. Against ZBTB47 (zinc finger and BTB domain containing 47), the entry reads viability hit class no change; caspase hit class no change; viability robust z-score -0.46; caspase robust z-score 0.8; inactive. GJC3 (gap junction protein gamma 3) showed viability hit class no change; caspase hit class no change; viability robust z-score 0.5; caspase robust z-score 1.47; inactive.

Depletion of WBP2NL (WBP2 N-terminal like) came out at: viability hit class no change; caspase hit class no change; viability robust z-score 0.59; caspase robust z-score 0.51; inactive. Silencing of WDR6 (WD repeat domain 6) came out at: viability hit class no change; caspase hit class no change; viability robust z-score -0.19; caspase robust z-score 0.6; inactive.

2 of these entries in another layout.
| Gene | viability hit class | caspase hit class | viability robust z-score | caspase robust z-score | call |
| --- | --- | --- | --- | --- | --- |
| GJC3 (gap junction protein gamma 3) | no change | no change | 0.5 | 1.47 | inactive |
| WBP2NL (WBP2 N-terminal like) | no change | no change | 0.59 | 0.51 | inactive |

The list goes on:
PDHX (pyruvate dehydrogenase complex component X) showed viability hit class no change; caspase hit class no change; viability robust z-score -0.71; caspase robust z-score 0.74; inactive. For CYP3A7 (cytochrome P450 family 3 subfamily A member 7), the values are viability hit class no change; caspase hit class no change; viability robust z-score 0.18; caspase robust z-score -0.02; inactive. Depletion of C1QTNF12 (C1q and TNF related 12) came out at: viability hit class no change; caspase hit class no change; viability robust z-score 1.16; caspase robust z-score 2.62; inactive. ZNF137P (zinc finger protein 137, pseudogene) gave viability hit class no change; caspase hit class no change; viability robust z-score 0.5; caspase robust z-score -0.29; inactive. Silencing of EHBP1 (EH domain binding protein 1) came out at: viability hit class no change; caspase hit class no change; viability robust z-score -0.55; caspase robust z-score -0.48; inactive. Silencing of COBL (cordon-bleu WH2 repeat protein) came out at: viability hit class no change; caspase hit class no change; viability robust z-score 0.38; caspase robust z-score 1.86; inactive.

After knock-down of PMP22 (peripheral myelin protein 22), the screen gave viability hit class no change; caspase hit class no change; viability robust z-score -0.13; caspase robust z-score -0.75; inactive. Knock-down of PCDHB13 (protocadherin beta 13) gave: viability hit class no change; caspase hit class no change; viability robust z-score -0.68; caspase robust z-score 0.94; inactive. Silencing of CYP4F3 (cytochrome P450 family 4 subfamily F member 3) resulted in: viability hit class no change; caspase hit class no change; viability robust z-score -0.08; caspase robust z-score 1.96; inactive. TFAP4 (transcription factor AP-4) showed viability hit class no change; caspase hit class no change; viability robust z-score 0.3; caspase robust z-score -1.09; inactive. PNN (pinin, desmosome associated protein) scored viability hit class RV2 (reduced viability); caspase hit class CA2 (caspase activation); viability robust z-score -3; caspase robust z-score 5.88; active. With knock-down of DNAJB3P (DnaJ heat shock protein family (Hsp40) member B3, pseudogene), the record shows viability hit class no change; caspase hit class no change; viability robust z-score 0.26; caspase robust z-score 0.89; inactive.

RABEPK (Rab9 effector protein with kelch motifs) gave viability hit class no change; caspase hit class no change; viability robust z-score -1.61; caspase robust z-score -1.07; inactive.
